Test results from the supplement of paper PMC10849652.
The list shows a part of the results.

Chains of the proteins cited; added tags and fusions are not shown. Lines headed by an entry give the natural chain unless they say otherwise; changes in a name come on top.
UniProt Q9NYB0: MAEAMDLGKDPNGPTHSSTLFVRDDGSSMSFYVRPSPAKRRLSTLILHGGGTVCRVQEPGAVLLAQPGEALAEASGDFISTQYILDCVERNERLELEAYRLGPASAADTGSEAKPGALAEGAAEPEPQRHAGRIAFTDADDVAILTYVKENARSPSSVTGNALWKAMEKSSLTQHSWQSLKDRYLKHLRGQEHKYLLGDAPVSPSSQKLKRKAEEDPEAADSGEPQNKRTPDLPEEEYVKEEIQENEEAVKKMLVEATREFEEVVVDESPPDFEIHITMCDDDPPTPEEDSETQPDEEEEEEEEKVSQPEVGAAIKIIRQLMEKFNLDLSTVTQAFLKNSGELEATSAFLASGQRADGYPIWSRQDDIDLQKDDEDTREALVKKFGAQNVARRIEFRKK
UniProt Q9NUY8: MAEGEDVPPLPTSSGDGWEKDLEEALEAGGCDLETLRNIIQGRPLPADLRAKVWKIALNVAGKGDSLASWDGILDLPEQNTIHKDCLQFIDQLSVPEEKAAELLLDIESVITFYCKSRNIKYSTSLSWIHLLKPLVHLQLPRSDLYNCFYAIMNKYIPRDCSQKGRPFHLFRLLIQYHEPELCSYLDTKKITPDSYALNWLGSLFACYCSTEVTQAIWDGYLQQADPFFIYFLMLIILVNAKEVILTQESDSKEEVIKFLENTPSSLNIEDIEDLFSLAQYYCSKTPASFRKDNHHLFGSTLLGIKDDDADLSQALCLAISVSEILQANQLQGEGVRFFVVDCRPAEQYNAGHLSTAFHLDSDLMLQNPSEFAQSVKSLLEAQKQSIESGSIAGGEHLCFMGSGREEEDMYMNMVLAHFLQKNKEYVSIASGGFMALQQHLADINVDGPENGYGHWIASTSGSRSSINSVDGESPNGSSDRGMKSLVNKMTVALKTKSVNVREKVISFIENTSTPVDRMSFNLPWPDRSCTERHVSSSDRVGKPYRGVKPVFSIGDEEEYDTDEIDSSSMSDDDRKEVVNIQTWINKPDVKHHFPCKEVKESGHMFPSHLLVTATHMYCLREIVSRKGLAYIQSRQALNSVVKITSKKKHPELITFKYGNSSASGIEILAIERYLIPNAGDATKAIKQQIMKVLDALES
UniProt Q5VWP2: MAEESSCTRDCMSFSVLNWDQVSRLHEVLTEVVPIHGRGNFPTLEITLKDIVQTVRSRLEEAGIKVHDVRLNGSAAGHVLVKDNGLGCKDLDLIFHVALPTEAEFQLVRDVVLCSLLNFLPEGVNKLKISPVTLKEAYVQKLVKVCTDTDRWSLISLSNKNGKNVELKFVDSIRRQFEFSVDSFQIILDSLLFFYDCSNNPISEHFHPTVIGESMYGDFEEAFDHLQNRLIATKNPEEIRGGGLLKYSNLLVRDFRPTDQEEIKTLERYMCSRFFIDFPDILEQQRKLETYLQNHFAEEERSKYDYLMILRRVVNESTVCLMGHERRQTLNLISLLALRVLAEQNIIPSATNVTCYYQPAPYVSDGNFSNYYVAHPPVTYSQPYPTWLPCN
UniProt Q969Z0: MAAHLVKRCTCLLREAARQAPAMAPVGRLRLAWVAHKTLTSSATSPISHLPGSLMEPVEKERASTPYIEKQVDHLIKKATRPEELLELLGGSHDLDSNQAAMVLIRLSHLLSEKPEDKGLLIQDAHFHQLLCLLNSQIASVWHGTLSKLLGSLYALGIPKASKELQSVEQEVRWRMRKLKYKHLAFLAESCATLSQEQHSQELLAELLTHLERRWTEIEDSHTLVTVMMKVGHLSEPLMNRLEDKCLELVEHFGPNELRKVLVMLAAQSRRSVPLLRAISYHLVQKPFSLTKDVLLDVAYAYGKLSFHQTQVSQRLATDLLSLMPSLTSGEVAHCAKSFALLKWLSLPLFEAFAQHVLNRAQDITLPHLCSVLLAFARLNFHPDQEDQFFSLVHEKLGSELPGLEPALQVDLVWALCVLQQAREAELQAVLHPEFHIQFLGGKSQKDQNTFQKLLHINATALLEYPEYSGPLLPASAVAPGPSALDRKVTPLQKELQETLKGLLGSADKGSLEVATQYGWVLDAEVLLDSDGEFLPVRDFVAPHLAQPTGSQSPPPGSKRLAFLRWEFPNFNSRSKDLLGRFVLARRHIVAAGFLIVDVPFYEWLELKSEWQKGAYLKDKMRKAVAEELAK
UniProt Q9UDY2: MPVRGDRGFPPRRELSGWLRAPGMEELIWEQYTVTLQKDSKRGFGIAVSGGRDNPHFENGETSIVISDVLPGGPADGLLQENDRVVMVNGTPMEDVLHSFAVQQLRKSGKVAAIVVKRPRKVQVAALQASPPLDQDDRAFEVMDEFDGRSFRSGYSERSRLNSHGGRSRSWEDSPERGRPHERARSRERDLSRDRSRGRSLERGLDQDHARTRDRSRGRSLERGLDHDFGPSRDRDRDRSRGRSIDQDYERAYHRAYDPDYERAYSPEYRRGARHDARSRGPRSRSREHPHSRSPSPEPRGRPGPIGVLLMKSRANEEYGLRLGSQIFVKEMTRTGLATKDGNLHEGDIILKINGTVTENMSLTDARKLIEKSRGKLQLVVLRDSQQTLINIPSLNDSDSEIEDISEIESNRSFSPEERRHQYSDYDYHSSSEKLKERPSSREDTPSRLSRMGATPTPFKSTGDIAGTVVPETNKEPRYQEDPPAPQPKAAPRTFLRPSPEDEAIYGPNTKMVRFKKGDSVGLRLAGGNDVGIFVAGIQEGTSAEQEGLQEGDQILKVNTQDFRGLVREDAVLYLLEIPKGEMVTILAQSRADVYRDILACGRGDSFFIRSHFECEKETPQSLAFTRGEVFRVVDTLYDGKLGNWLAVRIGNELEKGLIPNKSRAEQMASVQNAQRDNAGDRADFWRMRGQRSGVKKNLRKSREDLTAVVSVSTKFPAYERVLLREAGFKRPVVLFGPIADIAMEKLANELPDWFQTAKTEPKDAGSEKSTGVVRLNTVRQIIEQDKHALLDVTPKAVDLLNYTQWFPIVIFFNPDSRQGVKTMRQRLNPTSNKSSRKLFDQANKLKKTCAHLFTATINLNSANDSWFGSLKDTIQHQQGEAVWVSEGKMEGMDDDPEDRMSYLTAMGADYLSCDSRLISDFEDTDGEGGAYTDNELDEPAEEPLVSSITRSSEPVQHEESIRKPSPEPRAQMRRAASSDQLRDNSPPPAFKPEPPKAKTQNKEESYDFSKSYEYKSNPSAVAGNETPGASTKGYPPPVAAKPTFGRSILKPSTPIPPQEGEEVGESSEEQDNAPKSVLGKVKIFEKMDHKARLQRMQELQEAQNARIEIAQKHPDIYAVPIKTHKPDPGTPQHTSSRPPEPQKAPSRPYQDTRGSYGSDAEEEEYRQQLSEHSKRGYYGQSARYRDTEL
UniProt Q96CG3: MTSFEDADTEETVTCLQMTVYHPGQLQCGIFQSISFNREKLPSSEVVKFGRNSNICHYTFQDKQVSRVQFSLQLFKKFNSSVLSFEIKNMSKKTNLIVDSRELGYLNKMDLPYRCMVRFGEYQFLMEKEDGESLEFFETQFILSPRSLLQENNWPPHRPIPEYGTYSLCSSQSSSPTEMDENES
UniProt Q9BTW9: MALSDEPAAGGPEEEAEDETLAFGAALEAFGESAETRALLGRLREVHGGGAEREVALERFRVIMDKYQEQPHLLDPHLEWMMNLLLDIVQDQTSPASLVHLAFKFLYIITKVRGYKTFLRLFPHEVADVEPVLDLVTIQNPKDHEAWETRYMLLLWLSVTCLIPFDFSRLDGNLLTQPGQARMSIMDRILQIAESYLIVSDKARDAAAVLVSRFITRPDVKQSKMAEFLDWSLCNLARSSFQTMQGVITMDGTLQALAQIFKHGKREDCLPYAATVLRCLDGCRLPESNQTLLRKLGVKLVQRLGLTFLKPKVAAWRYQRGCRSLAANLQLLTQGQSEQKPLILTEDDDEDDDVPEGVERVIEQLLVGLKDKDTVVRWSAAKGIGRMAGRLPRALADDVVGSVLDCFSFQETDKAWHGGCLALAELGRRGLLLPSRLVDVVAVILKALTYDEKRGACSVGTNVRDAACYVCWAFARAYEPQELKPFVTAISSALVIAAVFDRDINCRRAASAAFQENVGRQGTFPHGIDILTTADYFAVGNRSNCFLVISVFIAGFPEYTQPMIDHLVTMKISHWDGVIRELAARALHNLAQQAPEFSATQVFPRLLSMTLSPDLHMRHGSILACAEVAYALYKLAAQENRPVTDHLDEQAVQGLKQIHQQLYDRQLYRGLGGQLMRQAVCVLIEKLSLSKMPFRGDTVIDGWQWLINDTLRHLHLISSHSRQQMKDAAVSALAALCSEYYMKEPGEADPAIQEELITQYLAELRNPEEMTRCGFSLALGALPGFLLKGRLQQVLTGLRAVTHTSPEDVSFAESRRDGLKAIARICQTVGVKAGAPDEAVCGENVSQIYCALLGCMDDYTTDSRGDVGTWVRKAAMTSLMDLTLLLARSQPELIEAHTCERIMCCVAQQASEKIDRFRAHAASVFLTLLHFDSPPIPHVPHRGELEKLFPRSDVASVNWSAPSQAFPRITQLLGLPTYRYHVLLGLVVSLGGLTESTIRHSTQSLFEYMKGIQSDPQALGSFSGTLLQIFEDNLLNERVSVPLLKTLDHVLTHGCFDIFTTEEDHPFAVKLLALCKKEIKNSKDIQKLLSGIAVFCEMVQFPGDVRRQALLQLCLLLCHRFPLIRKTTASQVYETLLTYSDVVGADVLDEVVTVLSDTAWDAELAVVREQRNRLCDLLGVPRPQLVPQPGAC
UniProt O00142: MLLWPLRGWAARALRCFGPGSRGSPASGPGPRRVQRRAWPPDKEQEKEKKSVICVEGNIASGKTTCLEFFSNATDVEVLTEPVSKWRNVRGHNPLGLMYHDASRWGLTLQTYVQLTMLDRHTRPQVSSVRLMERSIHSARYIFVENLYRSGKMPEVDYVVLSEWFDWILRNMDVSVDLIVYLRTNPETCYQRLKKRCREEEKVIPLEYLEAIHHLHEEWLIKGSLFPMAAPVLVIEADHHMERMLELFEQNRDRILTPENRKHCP
UniProt O43615: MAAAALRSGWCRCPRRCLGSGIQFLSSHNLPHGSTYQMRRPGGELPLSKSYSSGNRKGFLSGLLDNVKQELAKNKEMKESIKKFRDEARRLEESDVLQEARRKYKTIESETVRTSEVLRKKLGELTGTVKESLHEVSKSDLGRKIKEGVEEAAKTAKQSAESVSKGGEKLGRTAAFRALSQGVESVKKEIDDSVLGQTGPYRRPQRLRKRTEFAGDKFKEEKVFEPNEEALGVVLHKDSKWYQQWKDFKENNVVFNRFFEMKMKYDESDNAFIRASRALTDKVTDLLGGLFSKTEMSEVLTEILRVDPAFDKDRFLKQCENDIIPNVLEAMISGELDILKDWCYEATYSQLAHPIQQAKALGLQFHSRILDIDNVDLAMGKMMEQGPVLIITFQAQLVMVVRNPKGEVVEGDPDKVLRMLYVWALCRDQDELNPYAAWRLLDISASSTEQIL
UniProt Q9BVV7: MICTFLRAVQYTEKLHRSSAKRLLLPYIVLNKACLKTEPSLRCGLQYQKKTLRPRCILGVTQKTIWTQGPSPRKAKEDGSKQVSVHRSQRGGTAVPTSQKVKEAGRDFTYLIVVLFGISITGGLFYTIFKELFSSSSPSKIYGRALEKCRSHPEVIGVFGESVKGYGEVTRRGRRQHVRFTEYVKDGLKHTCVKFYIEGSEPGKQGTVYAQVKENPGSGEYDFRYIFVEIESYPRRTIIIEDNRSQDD
UniProt Q5JUR7: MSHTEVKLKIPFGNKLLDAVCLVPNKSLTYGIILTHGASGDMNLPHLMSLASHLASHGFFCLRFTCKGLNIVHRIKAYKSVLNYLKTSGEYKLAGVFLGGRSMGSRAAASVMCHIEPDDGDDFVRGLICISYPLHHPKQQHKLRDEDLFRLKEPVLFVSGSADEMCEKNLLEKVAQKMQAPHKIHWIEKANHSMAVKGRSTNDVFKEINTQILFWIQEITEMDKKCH
UniProt Q9BQ70: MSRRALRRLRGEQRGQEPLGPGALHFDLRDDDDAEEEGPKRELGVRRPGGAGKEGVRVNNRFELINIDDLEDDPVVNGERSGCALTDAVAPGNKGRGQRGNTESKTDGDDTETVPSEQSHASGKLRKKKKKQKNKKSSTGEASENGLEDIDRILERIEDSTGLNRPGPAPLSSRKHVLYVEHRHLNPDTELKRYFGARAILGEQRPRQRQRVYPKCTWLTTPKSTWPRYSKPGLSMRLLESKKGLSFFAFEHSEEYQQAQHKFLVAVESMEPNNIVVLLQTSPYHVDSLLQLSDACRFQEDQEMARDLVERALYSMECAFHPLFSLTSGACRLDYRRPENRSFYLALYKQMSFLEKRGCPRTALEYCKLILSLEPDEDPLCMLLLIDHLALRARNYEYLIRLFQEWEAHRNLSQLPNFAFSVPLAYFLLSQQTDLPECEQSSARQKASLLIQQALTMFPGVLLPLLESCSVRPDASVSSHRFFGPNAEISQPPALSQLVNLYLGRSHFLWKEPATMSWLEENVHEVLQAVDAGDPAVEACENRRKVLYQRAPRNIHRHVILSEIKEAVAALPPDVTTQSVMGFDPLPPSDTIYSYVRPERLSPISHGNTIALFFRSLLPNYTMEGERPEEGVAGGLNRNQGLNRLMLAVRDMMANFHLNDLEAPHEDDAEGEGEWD

Each target was assayed with Cc1ccc(-n2nc(C(C)(C)C)cc2NC(=O)Nc2ccc(OCCN3CCOCC3)c3ccccc23)cc1 [doramapimod] (assay: log2 fold change, soluble protein after heating vs DMSO (PISA); higher = thermal stabilisation; K562 cells, 10 uM, 30 min; active = over 0.2 and 3.5 SD of the protein, either way, in both replicates (recomputed)).
Procedure, shortened: (§1)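 Thermal stability values are relative to control samples and come from duplicates. They are expressed as log2 fold changes. For measurement, K562 cells (2×10^6 cells/mL) received 10 μM compound for 30 min, and aliquots were heated for 3 min over 48°C-58°C, pooled, and extracted at 4°C in PBS with 0.5% NP-40. Soluble protein, the supernatant after 21,000xg for 90 min, was quantified by TMTpro 16plex LC-MS/MS with equalised channel sums.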
In the case of TERF2IP (UniProt Q9NYB0), the log2 fold change is reported as inactive: -0.019. For TBC1D23 (UniProt Q9NUY8), the log2 fold change was inactive: -0.027. For TFAM (UniProt Q00059), the log2 fold change was inactive: 0.022. With TGS1 (UniProt Q96RS0) the log2 fold change was inactive: -0.023. TENT5C (UniProt Q5VWP2) was tested, and the log2 fold change was inactive: 0.061. TIPRL (UniProt O75663) was tested, and the log2 fold change was inactive: -0.034. With TFCP2 (UniProt Q12800) the log2 fold change was inactive: 0.17. In the case of TBC1D5 isoform 2 (UniProt Q92609), the log2 fold change is reported as inactive: -0.031. For TDRD7 (UniProt Q8NHU6), the log2 fold change was inactive: -0.057. TBC1D20 isoform 3 (UniProt Q96BZ9) was tested, and the log2 fold change was inactive: 0.05. With TGFBI (UniProt Q15582) the log2 fold change was inactive: -0.182. For TJP1 (UniProt Q07157), the log2 fold change was inactive: -0.01. For TFPI (UniProt P10646), the log2 fold change was inactive: -0.151. With TBP (UniProt P20226) the log2 fold change was inactive: -0.023. TFDP1 (UniProt Q14186) was tested, and the log2 fold change was inactive: -0.069. With TBRG4 (UniProt Q969Z0) the log2 fold change was inactive: -0.081. With TJP2 isoform 7 (UniProt Q9UDY2) the log2 fold change was inactive: 0.068. In the case of TIFA (UniProt Q96CG3), the log2 fold change is reported as inactive: 0.045. In the case of THYN1 (UniProt Q9P016), the log2 fold change is reported as inactive: -0.036. For TBC1D2B (UniProt Q9UPU7), the log2 fold change was inactive: 0.059. In the case of TBCD (UniProt Q9BTW9), the log2 fold change is reported as inactive: 0.004. TBK1 (UniProt Q9UHD2) was tested, and the log2 fold change was inactive: 0.013. For TBC1D24 (UniProt Q9ULP9), the log2 fold change was inactive: 0.061. In the case of TK2 isoform 6 (UniProt O00142), the log2 fold change is reported as inactive: -0.104. TEX2 isoform 2 (UniProt Q8IWB9) was tested, and the log2 fold change was inactive: 0.034. TFE3 (UniProt P19532) was tested, and the log2 fold change was inactive: -0.032. In the case of TCEAL1 isoform 2 (UniProt Q15170), the log2 fold change is reported as inactive: -0.371. For THRAP3 (UniProt Q9Y2W1), the log2 fold change was inactive: 0.133. With THADA (UniProt Q6YHU6) the log2 fold change was inactive: 0.001. In the case of TCOF1 isoform 6 (UniProt Q13428), the log2 fold change is reported as inactive: -0.068. TIMM44 (UniProt O43615) was tested, and the log2 fold change was inactive: -0.035. In the case of TCIRG1 (UniProt Q13488), the log2 fold change is reported as inactive: 0.348. For TIMM29 (UniProt Q9BSF4), the log2 fold change was inactive: 0.185. TK1 (UniProt P04183) was tested, and the log2 fold change was inactive: -0.013. For TIMM21 (UniProt Q9BVV7), the log2 fold change was inactive: 0.02. With TEX30 (UniProt Q5JUR7) the log2 fold change was inactive: 0.059. In the case of TKT, A0A0B4J1R6, the log2 fold change is reported as inactive: 0.077. TCF25 (UniProt Q9BQ70) was tested, and the log2 fold change was inactive: -0.008. TCTN3 (UniProt Q6NUS6) was tested, and the log2 fold change was inactive: -0.114. THAP9 (UniProt Q9H5L6) was tested, and the log2 fold change was inactive: 0.041.

What follows are targets tested with Cc1ccc(C(=O)N(CCCN)[C@@H](c2nc3cc(Cl)ccc3c(=O)n2Cc2ccccc2)C(C)C)cc1 [ispinesib] in the same assay as above.
Procedure, shortened: as §1
TERF2IP (UniProt Q9NYB0) was tested, and the log2 fold change was inactive: 0.044. TBC1D23 (UniProt Q9NUY8) was tested, and the log2 fold change was active: -0.48. In the case of TFAM (UniProt Q00059), the log2 fold change is reported as inactive: -0.117. With TGS1 (UniProt Q96RS0) the log2 fold change was inactive: -0.173. TENT5C (UniProt Q5VWP2) was tested, and the log2 fold change was inactive: 0.055. With TIPRL (UniProt O75663) the log2 fold change was inactive: -0.055. In the case of TFCP2 (UniProt Q12800), the log2 fold change is reported as inactive: 0.053. In the case of TBC1D5 isoform 2 (UniProt Q92609), the log2 fold change is reported as inactive: -0.268. With TDRD7 (UniProt Q8NHU6) the log2 fold change was inactive: 0.034. TBC1D20 isoform 3 (UniProt Q96BZ9) was tested, and the log2 fold change was inactive: 0.113. With TGFBI (UniProt Q15582) the log2 fold change was inactive: -0.159. TJP1 (UniProt Q07157) was tested, and the log2 fold change was inactive: 0.026. With TFPI (UniProt P10646) the log2 fold change was inactive: 0.155. For TBP (UniProt P20226), the log2 fold change was inactive: -0.006. With TFDP1 (UniProt Q14186) the log2 fold change was inactive: -0.078. TBRG4 (UniProt Q969Z0) was tested, and the log2 fold change was inactive: -0.254. For TJP2 isoform 7 (UniProt Q9UDY2), the log2 fold change was inactive: -0.065. In the case of THYN1 (UniProt Q9P016), the log2 fold change is reported as inactive: -0.002. For TBCD (UniProt Q9BTW9), the log2 fold change was inactive: -0.032. With TBK1 (UniProt Q9UHD2) the log2 fold change was inactive: -0.18. TBC1D24 (UniProt Q9ULP9) was tested, and the log2 fold change was inactive: -0.218. TK2 isoform 6 (UniProt O00142) was tested, and the log2 fold change was inactive: -0.025. TEX2 isoform 2 (UniProt Q8IWB9) was tested, and the log2 fold change was inactive: 0.084. With TFE3 (UniProt P19532) the log2 fold change was inactive: -0.185. In the case of TCEAL1 isoform 2 (UniProt Q15170), the log2 fold change is reported as inactive: 0.026. For THRAP3 (UniProt Q9Y2W1), the log2 fold change was inactive: -0.043. With THADA (UniProt Q6YHU6) the log2 fold change was inactive: -0.133. For TCOF1 isoform 6 (UniProt Q13428), the log2 fold change was inactive: -0.122. For TIMM44 (UniProt O43615), the log2 fold change was inactive: -0.128. In the case of TCIRG1 (UniProt Q13488), the log2 fold change is reported as inactive: -0.522. With TIMM29 (UniProt Q9BSF4) the log2 fold change was inactive: 0.033. In the case of TK1 (UniProt P04183), the log2 fold change is reported as inactive: 0.017. TIMM21 (UniProt Q9BVV7) was tested, and the log2 fold change was inactive: -0.229. With TEX30 (UniProt Q5JUR7) the log2 fold change was inactive: -0.295. TKT, A0A0B4J1R6 was tested, and the log2 fold change was inactive: -0.273. For TCF25 (UniProt Q9BQ70), the log2 fold change was inactive: 0.025. THAP9 (UniProt Q9H5L6) was tested, and the log2 fold change was inactive: -0.21.
